No constants are given. Whether binding was seen depends on the method and setting. In cells and extracts the contact can be indirect. Some binding calls cover weakened binding; strength is not graded here. For some assays here: Tags and fused reporters may be left off the sequences shown.
Assays:
[1] = target: T1, USP37 (endogenous, Huh7) (human (endogenous in Huh7)) (UniProt Q86T82); assay: co-IP; USP37 immunoprecipitated from lysate of Huh7 cells transfected with vector or HA-HBx; blotted with USP37 and HBx antibody
T1 sequence: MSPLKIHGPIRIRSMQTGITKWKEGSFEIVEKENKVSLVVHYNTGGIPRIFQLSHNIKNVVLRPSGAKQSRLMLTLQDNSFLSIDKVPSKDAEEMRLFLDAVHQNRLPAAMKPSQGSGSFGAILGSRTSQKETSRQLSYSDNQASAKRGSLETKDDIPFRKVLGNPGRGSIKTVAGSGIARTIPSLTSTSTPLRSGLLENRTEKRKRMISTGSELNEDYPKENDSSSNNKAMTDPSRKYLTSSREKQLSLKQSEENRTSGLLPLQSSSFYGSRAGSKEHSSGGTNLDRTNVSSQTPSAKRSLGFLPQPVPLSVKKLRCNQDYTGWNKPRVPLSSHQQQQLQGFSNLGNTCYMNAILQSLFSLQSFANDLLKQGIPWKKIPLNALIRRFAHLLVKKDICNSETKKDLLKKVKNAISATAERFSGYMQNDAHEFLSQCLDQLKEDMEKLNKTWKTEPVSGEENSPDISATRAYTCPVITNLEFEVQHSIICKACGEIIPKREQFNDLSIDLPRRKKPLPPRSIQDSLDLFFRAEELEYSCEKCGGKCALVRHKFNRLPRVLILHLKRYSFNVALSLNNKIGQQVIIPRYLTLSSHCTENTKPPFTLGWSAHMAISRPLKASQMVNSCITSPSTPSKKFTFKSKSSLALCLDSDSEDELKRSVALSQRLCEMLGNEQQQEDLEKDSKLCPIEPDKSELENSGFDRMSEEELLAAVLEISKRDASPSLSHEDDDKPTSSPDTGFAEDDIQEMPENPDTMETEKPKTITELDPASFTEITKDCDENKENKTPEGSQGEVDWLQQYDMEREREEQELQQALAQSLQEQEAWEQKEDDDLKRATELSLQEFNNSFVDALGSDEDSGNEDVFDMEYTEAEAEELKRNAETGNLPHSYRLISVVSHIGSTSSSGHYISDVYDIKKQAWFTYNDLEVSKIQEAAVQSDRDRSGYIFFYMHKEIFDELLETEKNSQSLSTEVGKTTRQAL

Sequences of proteins named here, by UniProt entry; tags and fusion partners are left off.
UniProt P03165: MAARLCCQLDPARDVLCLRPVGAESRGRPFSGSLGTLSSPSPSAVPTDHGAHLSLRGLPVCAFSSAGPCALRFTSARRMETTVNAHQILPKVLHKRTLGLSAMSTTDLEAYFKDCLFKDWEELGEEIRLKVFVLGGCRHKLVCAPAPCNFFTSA

[2] = target: T2, Flag-USP37 (UniProt Q86T82); assay: co-IP; cells co-transfected with Flag-USP37 and HBx; HBx co-precipitated by Flag-tagged USP37
T2 sequence: T1 sequence

**Q.** HA-HBx (from UniProt P03165 1-154) was tested. Which binding [1] did it give?
**A.** Its binding is “binds”.

**Q.** For “HBx (co-transfected with Flag-USP37, construct not named) (from UniProt P03165 1-154)”, which binding [2] is on record?
**A.** Its binding is “binds”.

— paper PMC4210131
